Test results reported in PubChem BioAssay AID330 (DTP/NCI, 2004).
The list shows only some results of the screen, not a fair sample: it gathers tests that were run many times, whatever their T/C, doses with no T/C, and many T/C values between a quarter and a half above the control. Further doses and runs are listed elsewhere. T/C: endpoint of the treated group in % of that of the vehicle group. Some doses have a count of surviving animals in place of a T/C: the source holds a T/C of zero for them, seemingly a mark for toxic or unscored doses. Some survivor counts are full or nearly so, which does not show that the dose was tolerated: the source hardly ever lists a survival T/C far under the control, and the zero likely stands for such cases as well. Survivors were counted at the toxicity check, usually on the fifth day, unless a day is given; later deaths do not show. Schedules are NCI's codes, taken here to give the interval after Q, in days (D) or hours (H), and the number of doses after X. Where survival is the endpoint, this PubChem deposit counts one and a half times the control or more as active, and values a quarter to a half above the control carry no call in these data; other NCI protocols may use other cut-offs. Some entries were tested several times; the values are given in rising order.

Tested on: P388 leukemia ip, CD2F1 mice, survival T/C
Experiment: NCI In Vivo Anticancer Drug Screen. Data for tumor model P388 Leukemia (intraperitoneal) in CD2F1 (CDF1) mice
Conditions: T/C endpoint: median survival time, higher T/C = longer survival
[1] = dose: 100.0 mg/kg/injection, schedule: Q01DX005 (ip), vehicle: Klucel (hydroxypropylcellulose) (HPC)
[2] = dose: 200.0 mg/kg/injection, schedule: Q01DX005 (ip), vehicle: Klucel (hydroxypropylcellulose) (HPC)
[3] = dose: 40.0 mg/kg/injection, schedule: Q01DX009 (ip), vehicle: water
[4] = dose: 200.0 mg/kg/injection, schedule: Q04DX003 (ip), vehicle: saline with Tween-80

With `CN1c2ccccc2C(=O)Nc2cnc(Cl)nc21` the survivor count [1] was 4 of 5.

With `C#CC1=CC(=O)C(OC)=CC1=O` the survivor count (dose: 30.0 mg/kg/injection, schedule: Q01DX005 (ip), vehicle: Klucel (hydroxypropylcellulose) (HPC)) was 2 of 6, the survivor count (dose: 60.0 mg/kg/injection, schedule: Q01DX005 (ip), vehicle: Klucel (hydroxypropylcellulose) (HPC)) was 0 of 6 and the survivor count (dose: 120.0 mg/kg/injection, schedule: Q01DX005 (ip), vehicle: Klucel (hydroxypropylcellulose) (HPC)) was 0 of 6. For the same compound, the survivor count (dose: 240.0 mg/kg/injection, schedule: Q01DX005 (ip), vehicle: Klucel (hydroxypropylcellulose) (HPC)) was 0 of 6.

For `O=C([O-])c1ccccc1[O-].[Cu+2].c1ccc(-c2ccccn2)nc1`, the survivor count (dose: 25.0 mg/kg/injection, schedule: Q01DX005 (ip), vehicle: Klucel (hydroxypropylcellulose) (HPC)) was 0 of 6, the survivor count (dose: 50.0 mg/kg/injection, schedule: Q01DX005 (ip), vehicle: Klucel (hydroxypropylcellulose) (HPC)) was 0 of 6 and the survivor count [1] was 0 of 6. For the same compound, the survivor count [2] was 0 of 6.

`O=C1CCCCCCCCCC/C1=N/O` was tested, and the survivor count (dose: 400.0 mg/kg/injection, schedule: Q01DX009 (ip), vehicle: saline with Tween-80) was 2 of 6.

For `COCCOC(=O)CCn1cc(F)c(=O)[nH]c1=O`, the T/C (dose: 200.0 mg/kg/injection, schedule: Q04DX002 (ip), vehicle: saline) was 133 % of control, the T/C (dose: 400.0 mg/kg/injection, schedule: Q04DX002 (ip), vehicle: saline) was 132 and 139 % of control and the T/C (dose: 800.0 mg/kg/injection, schedule: Q04DX002 (ip), vehicle: saline) was 141 % of control. The survivor count (dose: 1600.0 mg/kg/injection, schedule: Q04DX002 (ip), vehicle: saline) was 6 of 6.

In the case of `c1ccc(CCNCCN2CCNCC2)cc1`, the survivor count (dose: 240.0 mg/kg/injection, schedule: Q01DX005 (ip), vehicle: saline) is reported as 0 of 6.

In the case of `CC(=O)OC1OC(CF)C(OC(C)=O)C1OC(C)=O` (stereo unspecified), the survivor count (dose: 400.0 mg/kg/injection, schedule: Q04DX003 (ip), vehicle: saline with Tween-80) is reported as 3 of 6.

`COC(=O)Nc1nc2ccc(CCC(=O)c3c(C)oc(C)c3-c3ccc(NC(C)=O)cc3)cc2[nH]1` was tested, and the T/C (dose: 240.0 mg/kg/injection, schedule: Q01DX005 (ip), vehicle: saline with Tween-80) was 133 % of control.

For `COc1ccc(C)c2c(NCCCCCCCCNc3c4ccccc4nc4c(OC)ccc(C)c34)c3ccccc3nc12`, the survivor count (dose: 20.0 mg/kg/injection, schedule: Q01DX009 (ip), vehicle: water) was 3 of 6 and the survivor count [3] was 0 of 6.

`CCN(CC)CCCC(C)Nc1nccc2cccc(Cl)c12` (stereo unspecified) was tested, and the survivor count (dose: 200.0 mg/kg/injection, schedule: Q01DX005 (ip), vehicle: saline) was 0 of 5.

With `CCCCCCCCCCCCCCC[N+]1([O-])CCCCC1` the survivor count (dose: 100.0 mg/kg/injection, schedule: Q01DX009 (ip), vehicle: saline) was 3 of 6 and the survivor count (dose: 200.0 mg/kg/injection, schedule: Q01DX009 (ip), vehicle: saline) was 0 of 6.

In the case of `CCN(CC)CCCC(C)NC(=O)Cc1cc(O)c2c(c1O)C(=O)c1ccccc1C2=O` (stereo unspecified), the T/C [3] is reported as 125 % of control.

For `O=c1oc(-c2ccco2)ns1`, the survivor count (dose: 100.0 mg/kg/injection, schedule: Q01DX009 (ip), vehicle: Klucel (hydroxypropylcellulose) (HPC)) was 2 of 6, the survivor count (dose: 200.0 mg/kg/injection, schedule: Q01DX009 (ip), vehicle: Klucel (hydroxypropylcellulose) (HPC)) was 1 of 6 and the survivor count (dose: 400.0 mg/kg/injection, schedule: Q01DX009 (ip), vehicle: Klucel (hydroxypropylcellulose) (HPC)) was 0 of 6.

With `CCOC(=O)C(CNc1ccc(O)cc1)NC(=O)c1ccccc1` (stereo unspecified) the survivor count (dose: 50.0 mg/kg/injection, schedule: Q01DX009 (ip), vehicle: saline with Tween-80) was 6 of 6.

`CCOC(=O)NC(=S)Nc1ccn(C)c1` was tested, and the T/C [4] was 128 % of control.

With `Nc1nc2c(ncn2C2OC(CO)C(O)C2O)c(=O)[nH]1` (stereo unspecified) the T/C (dose: 50.0 mg/kg/injection, schedule: Q04DX003 (ip), vehicle: saline with Tween-80) was 126 % of control, the T/C (dose: 100.0 mg/kg/injection, schedule: Q04DX003 (ip), vehicle: saline with Tween-80) was 125 and 143 % of control and the survivor count [4] was 2 of 6.

With `COC(=O)C#CBr` the survivor count (dose: 12.5 mg/kg/injection, schedule: Q04DX003 (ip), vehicle: saline) was 4 of 6.

`Cc1cc(O)c2c(=O)c(=O)c2c1` was tested, and the survivor count (dose: 200.0 mg/kg/injection, schedule: Q01DX005 (ip), vehicle: saline with Tween-80) was 1 of 6.

With `COC(=O)C#CC(N)=O` the T/C (dose: 2.5 mg/kg/injection, schedule: Q01DX009 (ip), vehicle: saline sonified) was 127 % of control.

For `C=C(C)C(=NC(C)(C)C)N1CCCCC1`, the survivor count [2] was 0 of 5.

In the case of `COc1cc2c(cc1OC)C(=O)C(Br)CC2` (stereo unspecified), the survivor count (dose: 200.0 mg/kg/injection, schedule: Q01DX009 (ip), vehicle: saline with Tween-80) is reported as 5 of 6.
